Measured values published in article doi:10.1101/383646.
These are yes or no findings as the source states them, for the method shown. Some binding calls cover weakened binding; strength is not graded here.

Sequences of proteins named here, by UniProt entry; tags and fusion partners are left off. Residues count along the entry.
UniProt Q4U9M9, residues 504-839: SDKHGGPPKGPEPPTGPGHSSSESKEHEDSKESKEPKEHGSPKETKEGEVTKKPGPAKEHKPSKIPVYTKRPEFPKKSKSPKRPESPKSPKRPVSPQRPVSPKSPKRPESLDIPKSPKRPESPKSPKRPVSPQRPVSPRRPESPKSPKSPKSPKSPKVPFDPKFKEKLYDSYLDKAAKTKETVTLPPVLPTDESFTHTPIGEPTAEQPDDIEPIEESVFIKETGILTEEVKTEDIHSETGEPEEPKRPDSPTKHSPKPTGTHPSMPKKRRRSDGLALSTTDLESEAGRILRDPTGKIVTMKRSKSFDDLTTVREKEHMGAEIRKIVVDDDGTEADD

Target: GST-p104 C-terminal disordered region (504-839) fusion protein with a C-terminal hexa-histidine tag (Theileria annulata) (UniProt Q4U9M9)
Experiment: pull-down

With “full-length human JNK2 with an N-terminal hexahistidine tag (from UniProt P45984 1-424)” the binding was “binds”.
